From the supplement of paper PMC6411743
± gives the standard deviation of the averaged measurements. This is a selection; strong and weak results do not stand in their true shares. Most values lie at the level of the controls, where differences are scatter.

Sequences of proteins named here, by UniProt entry; tags and fusion partners are left off. A change or cut given only in a name is not applied to a line headed by its entry.
UniProt P53609, whole entry, looked up: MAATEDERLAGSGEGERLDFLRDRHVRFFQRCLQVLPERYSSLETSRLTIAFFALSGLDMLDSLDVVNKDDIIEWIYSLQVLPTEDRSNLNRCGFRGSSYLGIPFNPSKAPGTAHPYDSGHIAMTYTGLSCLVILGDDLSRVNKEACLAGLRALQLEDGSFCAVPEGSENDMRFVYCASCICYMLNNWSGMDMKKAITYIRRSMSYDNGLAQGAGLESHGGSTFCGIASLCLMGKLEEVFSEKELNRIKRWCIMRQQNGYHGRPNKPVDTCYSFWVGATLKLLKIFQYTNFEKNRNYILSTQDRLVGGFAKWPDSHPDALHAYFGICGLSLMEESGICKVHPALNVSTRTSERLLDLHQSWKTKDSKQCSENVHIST
UniProt P55809: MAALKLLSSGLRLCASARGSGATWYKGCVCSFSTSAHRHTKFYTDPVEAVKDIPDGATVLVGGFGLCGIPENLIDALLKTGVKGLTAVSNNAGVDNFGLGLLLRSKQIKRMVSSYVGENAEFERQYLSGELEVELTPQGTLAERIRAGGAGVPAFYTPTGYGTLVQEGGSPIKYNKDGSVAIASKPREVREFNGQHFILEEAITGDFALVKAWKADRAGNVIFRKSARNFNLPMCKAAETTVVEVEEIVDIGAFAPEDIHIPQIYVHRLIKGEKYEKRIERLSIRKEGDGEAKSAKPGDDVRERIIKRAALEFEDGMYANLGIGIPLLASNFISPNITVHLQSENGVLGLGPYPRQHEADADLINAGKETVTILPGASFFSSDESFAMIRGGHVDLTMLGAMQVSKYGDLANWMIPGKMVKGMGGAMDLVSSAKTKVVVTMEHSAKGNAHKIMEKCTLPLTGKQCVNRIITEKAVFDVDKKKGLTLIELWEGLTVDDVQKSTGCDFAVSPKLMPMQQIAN
UniProt P62330: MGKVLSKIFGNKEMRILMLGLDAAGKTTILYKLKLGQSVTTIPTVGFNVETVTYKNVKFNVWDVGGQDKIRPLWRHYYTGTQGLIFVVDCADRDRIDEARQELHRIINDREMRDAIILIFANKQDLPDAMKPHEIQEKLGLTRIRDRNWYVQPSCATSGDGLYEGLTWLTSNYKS
UniProt P62310: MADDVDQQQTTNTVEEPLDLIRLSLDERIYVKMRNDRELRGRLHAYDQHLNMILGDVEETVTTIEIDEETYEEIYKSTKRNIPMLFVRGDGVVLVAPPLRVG
UniProt P54578: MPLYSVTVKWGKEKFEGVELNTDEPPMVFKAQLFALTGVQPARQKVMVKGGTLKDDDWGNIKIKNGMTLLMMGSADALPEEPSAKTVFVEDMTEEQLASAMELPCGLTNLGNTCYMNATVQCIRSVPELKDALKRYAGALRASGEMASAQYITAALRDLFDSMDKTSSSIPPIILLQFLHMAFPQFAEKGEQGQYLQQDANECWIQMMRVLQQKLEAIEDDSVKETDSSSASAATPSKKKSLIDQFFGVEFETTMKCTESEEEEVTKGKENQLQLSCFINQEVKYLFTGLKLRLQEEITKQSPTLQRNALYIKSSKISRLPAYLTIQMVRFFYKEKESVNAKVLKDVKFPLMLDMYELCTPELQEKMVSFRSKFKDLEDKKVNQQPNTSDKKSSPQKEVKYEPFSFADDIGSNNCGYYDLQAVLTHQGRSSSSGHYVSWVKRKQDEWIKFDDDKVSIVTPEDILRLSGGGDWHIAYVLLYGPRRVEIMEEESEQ
UniProt P53671: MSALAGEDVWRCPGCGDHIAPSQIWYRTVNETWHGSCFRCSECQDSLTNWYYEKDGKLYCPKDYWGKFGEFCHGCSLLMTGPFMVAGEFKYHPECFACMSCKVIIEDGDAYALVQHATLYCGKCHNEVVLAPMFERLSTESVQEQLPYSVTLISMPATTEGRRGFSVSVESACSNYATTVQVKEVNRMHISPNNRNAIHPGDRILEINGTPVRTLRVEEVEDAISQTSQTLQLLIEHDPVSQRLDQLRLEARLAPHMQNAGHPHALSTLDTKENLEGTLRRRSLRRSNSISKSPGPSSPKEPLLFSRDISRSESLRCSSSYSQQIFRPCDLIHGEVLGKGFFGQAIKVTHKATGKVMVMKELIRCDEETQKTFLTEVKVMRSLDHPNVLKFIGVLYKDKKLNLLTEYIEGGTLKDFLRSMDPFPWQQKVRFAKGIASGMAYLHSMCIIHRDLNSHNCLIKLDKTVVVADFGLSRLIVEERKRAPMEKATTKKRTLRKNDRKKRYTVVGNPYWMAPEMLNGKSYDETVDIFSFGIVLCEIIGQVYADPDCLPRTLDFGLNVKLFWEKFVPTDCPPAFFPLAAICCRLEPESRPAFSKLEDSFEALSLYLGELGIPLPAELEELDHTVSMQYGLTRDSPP
UniProt P53794: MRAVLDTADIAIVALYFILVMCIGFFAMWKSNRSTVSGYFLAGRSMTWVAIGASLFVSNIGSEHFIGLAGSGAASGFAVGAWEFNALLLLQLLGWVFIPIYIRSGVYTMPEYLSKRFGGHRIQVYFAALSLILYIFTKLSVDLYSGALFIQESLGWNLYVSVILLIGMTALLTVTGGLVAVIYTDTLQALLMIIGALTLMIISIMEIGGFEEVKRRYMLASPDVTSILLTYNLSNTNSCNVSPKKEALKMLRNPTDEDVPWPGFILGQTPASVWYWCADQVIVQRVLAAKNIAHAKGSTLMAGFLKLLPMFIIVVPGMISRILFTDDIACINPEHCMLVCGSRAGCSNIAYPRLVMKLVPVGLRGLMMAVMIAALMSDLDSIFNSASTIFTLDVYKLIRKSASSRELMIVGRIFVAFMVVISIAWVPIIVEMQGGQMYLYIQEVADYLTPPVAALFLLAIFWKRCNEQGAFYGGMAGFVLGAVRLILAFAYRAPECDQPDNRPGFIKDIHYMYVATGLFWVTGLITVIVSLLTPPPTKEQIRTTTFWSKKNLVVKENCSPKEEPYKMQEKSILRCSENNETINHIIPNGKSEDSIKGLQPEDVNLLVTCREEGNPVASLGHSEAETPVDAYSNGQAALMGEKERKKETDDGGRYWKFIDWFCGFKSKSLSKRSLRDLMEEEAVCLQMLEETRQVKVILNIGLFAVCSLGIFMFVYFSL
UniProt P84090, whole entry, looked up: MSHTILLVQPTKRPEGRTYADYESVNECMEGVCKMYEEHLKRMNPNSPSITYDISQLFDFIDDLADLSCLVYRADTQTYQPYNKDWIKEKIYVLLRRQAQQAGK
UniProt P55957: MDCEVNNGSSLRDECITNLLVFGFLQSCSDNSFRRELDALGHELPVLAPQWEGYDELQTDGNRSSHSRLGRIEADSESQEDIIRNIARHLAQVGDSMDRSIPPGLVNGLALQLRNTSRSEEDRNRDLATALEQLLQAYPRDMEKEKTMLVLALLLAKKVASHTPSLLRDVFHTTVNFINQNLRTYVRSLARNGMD
UniProt P61769, whole entry: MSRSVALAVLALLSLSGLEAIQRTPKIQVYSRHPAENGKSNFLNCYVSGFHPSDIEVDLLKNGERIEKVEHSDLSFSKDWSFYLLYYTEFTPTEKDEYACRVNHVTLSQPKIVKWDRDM
UniProt P61026: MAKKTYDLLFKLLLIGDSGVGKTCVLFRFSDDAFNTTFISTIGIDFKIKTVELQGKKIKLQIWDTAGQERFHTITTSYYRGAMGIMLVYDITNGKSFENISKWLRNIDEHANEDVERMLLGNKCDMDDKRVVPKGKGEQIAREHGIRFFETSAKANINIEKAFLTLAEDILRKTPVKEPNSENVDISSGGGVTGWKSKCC
UniProt P60983, whole entry: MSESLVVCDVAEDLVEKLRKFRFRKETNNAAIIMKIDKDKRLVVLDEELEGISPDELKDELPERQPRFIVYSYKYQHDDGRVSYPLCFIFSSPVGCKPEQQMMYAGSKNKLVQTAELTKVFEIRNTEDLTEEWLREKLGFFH
UniProt P62191: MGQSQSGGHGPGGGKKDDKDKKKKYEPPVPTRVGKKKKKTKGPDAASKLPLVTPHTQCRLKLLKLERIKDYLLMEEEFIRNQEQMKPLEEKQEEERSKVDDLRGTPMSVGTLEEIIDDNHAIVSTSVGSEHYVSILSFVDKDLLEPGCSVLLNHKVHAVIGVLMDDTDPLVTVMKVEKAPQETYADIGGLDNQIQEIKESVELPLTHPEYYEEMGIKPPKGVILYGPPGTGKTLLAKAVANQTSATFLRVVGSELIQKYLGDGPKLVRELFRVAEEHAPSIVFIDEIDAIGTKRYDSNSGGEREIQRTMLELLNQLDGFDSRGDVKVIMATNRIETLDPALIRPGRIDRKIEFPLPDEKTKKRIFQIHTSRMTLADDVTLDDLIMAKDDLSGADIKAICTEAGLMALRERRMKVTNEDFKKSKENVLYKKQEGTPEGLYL
UniProt P55789: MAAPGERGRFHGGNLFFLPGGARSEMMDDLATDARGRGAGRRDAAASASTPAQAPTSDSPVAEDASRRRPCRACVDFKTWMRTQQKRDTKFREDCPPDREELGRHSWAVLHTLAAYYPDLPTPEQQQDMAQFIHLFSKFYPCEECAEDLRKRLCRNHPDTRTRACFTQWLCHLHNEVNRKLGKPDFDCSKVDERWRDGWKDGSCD
UniProt P61081: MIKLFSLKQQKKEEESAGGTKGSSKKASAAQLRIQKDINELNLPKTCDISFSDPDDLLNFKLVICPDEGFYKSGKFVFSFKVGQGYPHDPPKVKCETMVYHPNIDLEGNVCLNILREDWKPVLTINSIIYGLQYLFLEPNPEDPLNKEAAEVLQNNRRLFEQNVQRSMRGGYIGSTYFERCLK
UniProt P60604: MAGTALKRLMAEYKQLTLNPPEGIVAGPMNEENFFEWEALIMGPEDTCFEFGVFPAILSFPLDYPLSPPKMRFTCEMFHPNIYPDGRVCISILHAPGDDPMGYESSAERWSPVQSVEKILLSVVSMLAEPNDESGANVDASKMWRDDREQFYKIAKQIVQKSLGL
UniProt P78362, whole entry, looked up: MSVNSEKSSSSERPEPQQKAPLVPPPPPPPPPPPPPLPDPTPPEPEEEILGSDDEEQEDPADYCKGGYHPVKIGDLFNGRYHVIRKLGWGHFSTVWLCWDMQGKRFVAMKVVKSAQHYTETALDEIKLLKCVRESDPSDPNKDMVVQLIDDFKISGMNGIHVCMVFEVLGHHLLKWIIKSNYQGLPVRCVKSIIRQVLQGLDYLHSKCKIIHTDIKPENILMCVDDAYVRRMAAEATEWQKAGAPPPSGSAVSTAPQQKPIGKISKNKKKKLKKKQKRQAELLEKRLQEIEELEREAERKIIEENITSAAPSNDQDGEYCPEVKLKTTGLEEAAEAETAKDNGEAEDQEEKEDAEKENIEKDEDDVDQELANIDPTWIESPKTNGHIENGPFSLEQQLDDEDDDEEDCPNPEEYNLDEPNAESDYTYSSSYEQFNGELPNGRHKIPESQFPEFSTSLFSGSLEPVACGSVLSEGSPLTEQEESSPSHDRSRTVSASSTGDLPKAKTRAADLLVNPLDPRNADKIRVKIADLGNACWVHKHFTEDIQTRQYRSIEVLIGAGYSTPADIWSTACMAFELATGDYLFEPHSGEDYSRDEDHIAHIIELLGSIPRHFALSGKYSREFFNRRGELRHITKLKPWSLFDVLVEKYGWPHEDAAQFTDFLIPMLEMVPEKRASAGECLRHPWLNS
UniProt P53004: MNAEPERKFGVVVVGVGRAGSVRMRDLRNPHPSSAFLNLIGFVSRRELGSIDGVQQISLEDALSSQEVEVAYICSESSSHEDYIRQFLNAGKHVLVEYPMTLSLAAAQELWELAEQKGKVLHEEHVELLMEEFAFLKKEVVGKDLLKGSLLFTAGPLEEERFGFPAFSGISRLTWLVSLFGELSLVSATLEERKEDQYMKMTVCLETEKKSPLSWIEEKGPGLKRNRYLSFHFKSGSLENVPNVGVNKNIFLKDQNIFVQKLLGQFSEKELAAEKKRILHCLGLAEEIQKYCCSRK
UniProt P61457: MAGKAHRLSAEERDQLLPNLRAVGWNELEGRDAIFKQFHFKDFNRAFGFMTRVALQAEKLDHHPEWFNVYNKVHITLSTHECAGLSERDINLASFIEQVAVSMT
UniProt P62258: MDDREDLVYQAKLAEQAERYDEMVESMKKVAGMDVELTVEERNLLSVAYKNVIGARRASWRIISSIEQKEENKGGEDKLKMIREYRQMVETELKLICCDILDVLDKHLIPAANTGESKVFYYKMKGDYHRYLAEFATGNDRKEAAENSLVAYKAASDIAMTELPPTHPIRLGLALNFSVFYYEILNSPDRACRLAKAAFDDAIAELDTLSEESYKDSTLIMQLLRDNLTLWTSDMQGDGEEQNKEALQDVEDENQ
UniProt P61962: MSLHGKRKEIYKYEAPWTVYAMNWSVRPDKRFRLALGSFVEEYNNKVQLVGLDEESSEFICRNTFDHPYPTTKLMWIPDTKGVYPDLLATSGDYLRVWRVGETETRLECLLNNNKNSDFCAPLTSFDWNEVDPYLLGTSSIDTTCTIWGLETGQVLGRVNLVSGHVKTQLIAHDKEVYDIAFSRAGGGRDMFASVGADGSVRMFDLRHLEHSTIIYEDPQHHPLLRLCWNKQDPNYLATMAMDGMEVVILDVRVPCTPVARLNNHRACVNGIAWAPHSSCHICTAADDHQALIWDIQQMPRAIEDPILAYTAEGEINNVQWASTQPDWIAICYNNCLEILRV
UniProt P62318, whole entry: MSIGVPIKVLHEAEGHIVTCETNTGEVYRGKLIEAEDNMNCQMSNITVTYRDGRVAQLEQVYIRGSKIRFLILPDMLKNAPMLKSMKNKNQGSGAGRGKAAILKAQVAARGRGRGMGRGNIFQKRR

Compound: Nc1ncnc2c1ncn2[C@@H]1O[C@H](COP(=O)(O)OP(=O)(O)OP(=O)(O)O)[C@@H](O)[C@H]1O [adenosine triphosphate]
Assay: NP40-soluble protein abundance relative to vehicle (solubility fold change) (ratio); higher = more soluble protein in presence of ATP
Summary of the method: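 In three independent experiments, Jurkat crude lysate made by Dounce homogenisation was treated for 10 min at room temperature and then 3 min at 37 °C with eight concentrations ranging from 0.1 to 10 mM. It was then solubilised with 0.8% NP40 plus benzonase for 60 min at 4 °C and ultracentrifuged. The supernatant was TMT-labelled for LC-MS/MS, and each value is the fold change against the detergent-processed vehicle for the same replicate, using vsn-normalised intensities.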

Target	NP40-soluble protein abundance (concentration: 0.1mM)	NP40-soluble protein abundance (concentration: 0.5mM)
HCCS (UniProt P53701)	0.999 ± 0.03	1.06 ± 0.067
EEF1A1 (UniProt P68104)	0.971 ± 0.12	1.01 ± 0.036
PGGT1B (UniProt P53609)	1.02 ± 0.045	0.972 ± 0.13
UniProt P62875	0.845 ± 0.17	0.895 ± 0.2
RBM3 (UniProt P98179)	0.947 ± 0.038	0.977 ± 0.034
GTF2B (UniProt Q00403)	1.002 ± 0.0091	1 ± 0.012
UniProt P63220 and related entries	0.877 ± 0.14	0.834 ± 0.15
OXCT1 (UniProt P55809)	1.04 ± 0.067	1.04 ± 0.056
BLM (UniProt P54132)	1.02 ± 0.04	1.01 ± 0.029
DCD (UniProt P81605)	1.25 ± 0.93	1.52 ± 0.16
YARS (UniProt P54577)	1.02 ± 0.067	1.06 ± 0.08
UniProt P68036	0.935 ± 0.16	0.906 ± 0.14
PMS2 (UniProt P54278)	1.16 ± 0.052	1.2 ± 0.012
UniProt P62330	1.06 ± 0.097	1.08 ± 0.081
UniProt P61163	1.04 ± 0.03	1.04 ± 0.043
UniProt P58557 and related entries	0.957 ± 0.14	0.937 ± 0.057
UniProt P62310	1.02 ± 0.052	0.988 ± 0.07
UniProt P60763	1.02 ± 0.026	1.05 ± 0.051
UniProt P61254	0.917 ± 0.092	0.928 ± 0.08
CD81 (UniProt P60033)	0.933 ± 0.042	0.901 ± 0.1
UniProt P61313	0.988 ± 0.11	0.959 ± 0.098
USP14 (UniProt P54578)	1 ± 0.042	1.02 ± 0.03
RPL38 (UniProt P63173)	0.969 ± 0.073	0.939 ± 0.061
UniProt P53671 and related entries	1.09 ± 0.018	1.1 ± 0.038
MAX (UniProt P61244)	0.798 ± 0.17	0.843 ± 0.29
SLC5A3 (UniProt P53794)	1.13 ± 0.11	1.1 ± 0.25

In another format: results already given.
Target,NP40-soluble protein abundance (concentration: 0.1mM),NP40-soluble protein abundance (concentration: 0.5mM)
UniProt P62875,0.845 ± 0.17,0.895 ± 0.2
RBM3 (UniProt P98179),0.947 ± 0.038,0.977 ± 0.034
GTF2B (UniProt Q00403),1.002 ± 0.0091,1 ± 0.012
UniProt P63220 and related entries,0.877 ± 0.14,0.834 ± 0.15
OXCT1 (UniProt P55809),1.04 ± 0.067,1.04 ± 0.056
BLM (UniProt P54132),1.02 ± 0.04,1.01 ± 0.029
DCD (UniProt P81605),1.25 ± 0.93,1.52 ± 0.16
YARS (UniProt P54577),1.02 ± 0.067,1.06 ± 0.08
UniProt P68036,0.935 ± 0.16,0.906 ± 0.14
PMS2 (UniProt P54278),1.16 ± 0.052,1.2 ± 0.012
UniProt P62330,1.06 ± 0.097,1.08 ± 0.081
UniProt P61163,1.04 ± 0.03,1.04 ± 0.043
UniProt P58557 and related entries,0.957 ± 0.14,0.937 ± 0.057
UniProt P62310,1.02 ± 0.052,0.988 ± 0.07
UniProt P60763,1.02 ± 0.026,1.05 ± 0.051
UniProt P61254,0.917 ± 0.092,0.928 ± 0.08
CD81 (UniProt P60033),0.933 ± 0.042,0.901 ± 0.1
UniProt P61313,0.988 ± 0.11,0.959 ± 0.098
USP14 (UniProt P54578),1 ± 0.042,1.02 ± 0.03

Next records

Target	NP40-soluble protein abundance (concentration: 0.1mM)	NP40-soluble protein abundance (concentration: 0.5mM)
UniProt P84090	0.928 ± 0.13	1.02 ± 0.11
UniProt P63279	0.922 ± 0.11	0.929 ± 0.11
UniProt P55957 and related entries	0.903 ± 0.14	0.888 ± 0.12
IGBP1 (UniProt P78318)	0.957 ± 0.1	0.927 ± 0.1
XIAP (UniProt P98170)	1.06 ± 0.041	1.03 ± 0.04
B2M (UniProt P61769)	0.984 ± 0.049	1 ± 0.018
UniProt P57081 and related entries	1.05 ± 0.091	1.03 ± 0.046
SLC12A2 (UniProt P55011)	0.984 ± 0.048	0.986 ± 0.026
UniProt P63244	0.978 ± 0.011	0.946 ± 0.044
UniProt P62195 and related entries	1.01 ± 0.029	0.966 ± 0.034
UniProt P83916	1 ± 0.076	0.982 ± 0.036
UniProt P61160	1.02 ± 0.056	1.06 ± 0.051
UniProt P61026	0.981 ± 0.031	0.985 ± 0.021
UniProt P62701	0.927 ± 0.12	0.892 ± 0.13
UniProt P62851	0.823 ± 0.19	0.812 ± 0.26
GMFB (UniProt P60983)	0.993 ± 0.1	0.963 ± 0.057
UniProt P56937 and related entries	1.02 ± 0.047	1.04 ± 0.052
SLC25A1 (UniProt P53007)	0.932 ± 0.022	0.943 ± 0.05
TFAM (UniProt Q00059)	0.845 ± 0.18	0.809 ± 0.23
UniProt P62191	0.996 ± 0.022	0.969 ± 0.036
ROMO1 (UniProt P60602)	0.919 ± 0.054	0.849 ± 0.15
GFER (UniProt P55789)	0.909 ± 0.1	0.861 ± 0.17
UniProt P61081	1.01 ± 0.045	1 ± 0.029
UniProt P98194-5|P98194-6|P98194-7|P98194-8|P98194-9|B4E2Q0 and related entries	1.11 ± 0.068	1.06 ± 0.089
UniProt P61020	0.987 ± 0.043	1.05 ± 0.026
SEC13 (UniProt P55735)	1.05 ± 0.075	1.05 ± 0.024

Target	NP40-soluble protein abundance (concentration: 0.1mM)	NP40-soluble protein abundance (concentration: 0.5mM)
UniProt P62913 and related entries	0.955 ± 0.086	0.976 ± 0.061
UniProt P60604 and related entries	1.01 ± 0.043	0.975 ± 0.14
UniProt P78362-2|P78362	1.04 ± 0.062	1.04 ± 0.044
UniProt P62072	0.975 ± 0.065	0.979 ± 0.11
UniProt P78410 and related entries	0.994 ± 0.042	0.944 ± 0.041
MFAP1 (UniProt P55081)	0.995 ± 0.067	1.06 ± 0.041
BLVRA (UniProt P53004)	1.04 ± 0.089	1.05 ± 0.077
RPS27A (UniProt P62979)	0.914 ± 0.2	0.905 ± 0.2
UniProt P60174 and related entries	0.966 ± 0.037	0.974 ± 0.018
PCBD1 (UniProt P61457)	0.941 ± 0.037	0.878 ± 0.068
UniProt P61224 and related entries	0.951 ± 0.053	1 ± 0.011
UniProt P53990 and related entries	1.04 ± 0.069	1.15 ± 0.023
UniProt P62258	0.951 ± 0.012	0.945 ± 0.021
YPEL5 (UniProt P62699)	0.9516 ± 0.0092	0.92 ± 0.11
VBP1 (UniProt P61758)	0.937 ± 0.092	0.888 ± 0.071
UniProt P62829	0.966 ± 0.081	0.936 ± 0.08
UniProt P61962	1.07 ± 0.062	1.12 ± 0.057
PPP1CA (UniProt P62136)	0.983 ± 0.036	0.995 ± 0.057
CDK5 (UniProt Q00535)	1.02 ± 0.062	1.03 ± 0.027
UniProt P62380 and related entries	0.911 ± 0.01	0.917 ± 0.17
UniProt P53367 and related entries	0.993 ± 0.034	1.04 ± 0.1
UniProt P62318 and related entries	0.987 ± 0.033	1.06 ± 0.1
UniProt P62995 and related entries	0.941 ± 0.12	1.13 ± 0.14
UniProt P80217 and related entries	1.01 ± 0.031	0.9965 ± 0.0073
